Reference: paper PMC9143880, “Improving Antimicrobial Activity and Physico-Chemical Properties by Isosteric Replacement of 2-Aminothiazole with 2-Aminooxazole” (Pharmaceuticals, 2022)
In brackets after ≈: the same amount, converted by molar mass.

Tested on: Klebsiella pneumoniae CCM 4415 (ATCC 10031)
Experiment: Antibacterial microdilution broth (EUCAST)
Type: cell-based
Settings: internal quality control, 95% growth inhibition, 530 nm, 24 h, read-out: MIC (spectrophotometric detection)

O=C(O)c1cn(C2CC2)c2cc(N3CCNCC3)c(F)cc2c1=O [CIP, ciprofloxacin, reference compound]
MIC: 0.064 µg/mL (≈ 0.193 µM)
